These are yes or no findings as the source states them, for the method shown. Some results given as binding are weak or reduced against the parent protein; the word gives no strength.
Columns and labels:
[1] = molecular target: K106C Ec-MscL (Escherichia coli mechanosensitive channel of large conductance, cysteine mutant) (Escherichia coli) (UniProt P0A742); test: non-reducing SDS-PAGE with Western blot (dimer band); purified His-tagged cysteine mutants, 5 ug in 50 mM KPi pH 7.5, 150 mM NaCl, 4 mM DM, 22°C; nonreducing sample buffer with iodoacetamide; blot with Penta.His; samples of the MTS-PEG5000 versus DHS competition experiment, mock lanes included; both purified
[2] = molecular target: A110C Ec-MscL (Escherichia coli mechanosensitive channel of large conductance, cysteine mutant) (Escherichia coli) (UniProt P0A742); test: as above

| binding [1] | binding [2] | Binder |
| --- | --- | --- |
| binds weakly | – | K106C Ec-MscL (Escherichia coli mechanosensitive channel of large conductance, cysteine mutant) (protein, UniProt P0A742 1-136) MSIIKEFREFAMRGNVVDLAVGVIIGAAFGKIVSSLVADIIMPPLGLLIGGIDFKQFAVTLRDAQGDIPAVVMHYGVFIQNVFDFLIVAFAIFMAIKLINKLNRKCEEPAAAPAPTKEEVLLTEIRDLLKEQNNRS |
| – | binds weakly | A110C Ec-MscL (Escherichia coli mechanosensitive channel of large conductance, cysteine mutant) (protein, UniProt P0A742 1-136) MSIIKEFREFAMRGNVVDLAVGVIIGAAFGKIVSSLVADIIMPPLGLLIGGIDFKQFAVTLRDAQGDIPAVVMHYGVFIQNVFDFLIVAFAIFMAIKLINKLNRKKEEPCAAPAPTKEEVLLTEIRDLLKEQNNRS |

From PMC4900634 (PLoS Biology, 2016)
